# The list shows a part of the results.
# B1: LlpA (Burkholderia cenocepacia) (protein)
# chain: MGSSHHHHHHSSGLVPRGSHKILGSNETLSAGNVVYSDNGQYHLAMQTDGNLVVYGPTGAVWQSQTSGSGGNRAVMQGDGNLVIYRADNTAAWSSKTAHPGAFLAVQDDGNVVIYWPRPAWASNTSDPATQQSAESKYLASGSTMSAGQTVTVAQYMLVFQADGNLVLYKNGGNPIWSTGTQGKGATYAVMQSDGNFVIYAGSTALWSTKTNGANGAQLVLQSDGNLVIYAPTAAWSTKFGLVTAPTSTSTSNNGPGSGICVGVCPPHPLNGNPFSPVGVGTTGLGFPTPGYPGAAF
# Tests used:
# Experiment in all cases: glycan array binding signal (z-score within array); higher = stronger binding
# Conditions in all cases: glycan notation: IUPAC condensed, linker removed
# [1] = molecular target: GlcNAc(b1-4)GlcNAc(b1-4)GlcNAc(b1-4)GlcNAc(b1-4)GlcNAc
# Procedure, shortened: (§1)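 The binding signal is a Z-score computed within each array. Data were drawn from 3228 arrays in the Consortium for Functional Glycomics database, restricted to those with a known protein sequence. Scores were averaged over arrays of the same protein sequence at different concentrations or buffers, and over linkers, and negative values can be taken as non-binding.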
# [2] = molecular target: GlcNAc(b1-4)GlcNAc(b1-4)GlcNAc(b1-4)GlcNAc(b1-4)GlcNAc(b1-4)GlcNAc
# Procedure, shortened: as §1
# [3] = molecular target: GlcNAc(b1-4)[GlcNAc(b1-6)]GalNAc
# Procedure, shortened: as §1
# [4] = molecular target: GlcNAc(b1-6)Gal(b1-4)GlcNAc
# Procedure, shortened: as §1
# [5] = molecular target: GlcNAc(b1-6)GalNAc
# Procedure, shortened: as §1
# [6] = molecular target: GlcNAc6S(b1-3)Gal(b1-4)GlcNAc
# Procedure, shortened: as §1
# [7] = molecular target: Kdn(a2-3)Gal(b1-3)GalNAc
# Procedure, shortened: as §1
# [8] = molecular target: Kdn(a2-3)Gal(b1-3)GlcNAc
# Procedure, shortened: as §1
# [9] = molecular target: Kdn(a2-3)Gal(b1-4)Glc
# Procedure, shortened: as §1
# [10] = molecular target: Kdn(a2-3)Gal(b1-4)GlcNAc
# Procedure, shortened: as §1
# [11] = molecular target: Kdn(a2-3)Gal(b1-4)[Fuc(a1-3)]GlcNAc
# Procedure, shortened: as §1
# [12] = molecular target: Kdn(a2-6)Gal(b1-4)GlcNAc
# Procedure, shortened: as §1
# [13] = molecular target: Man(a1-2)Man(a1-2)Man(a1-3)Man
# Procedure, shortened: as §1
# [14] = molecular target: Man(a1-2)Man(a1-2)Man(a1-6)[Man(a1-3)]Man
# Procedure, shortened: as §1
# [15] = molecular target: Man(a1-2)Man(a1-3)Man
# Procedure, shortened: as §1
# [16] = molecular target: Man(a1-2)Man(a1-3)[Man(a1-2)Man(a1-6)]Man
# Procedure, shortened: as §1
# [17] = molecular target: Man(a1-2)Man(a1-3)[Man(a1-2)Man(a1-6)]Man(a1-6)[Man(a1-2)Man(a1-2)Man(a1-3)]Man
# Procedure, shortened: as §1
# [18] = molecular target: Man(a1-2)Man(a1-3)[Man(a1-2)Man(a1-6)]Man(a1-6)[Man(a1-2)Man(a1-2)Man(a1-3)]Man(b1-4)GlcNAc(b1-4)GlcNAc
# Procedure, shortened: as §1
# [19] = molecular target: Man(a1-2)Man(a1-3)[Man(a1-6)]Man(a1-6)[Man(a1-2)Man(a1-3)]Man(b1-4)GlcNAc(b1-4)GlcNAc
# Procedure, shortened: as §1
# [20] = molecular target: Man(a1-2)Man(a1-6)[Man(a1-3)]Man(a1-6)[Man(a1-2)Man(a1-2)Man(a1-3)]Man
# Procedure, shortened: as §1
# [21] = molecular target: Man(a1-2)Man(a1-6)[Man(a1-3)]Man(a1-6)[Man(a1-2)Man(a1-2)Man(a1-3)]Man(b1-4)GlcNAc(b1-4)GlcNAc
# Procedure, shortened: as §1
# [22] = molecular target: Man(a1-3)[Man(a1-6)]Man
# Procedure, shortened: as §1
# [23] = molecular target: Man(a1-3)[Man(a1-6)]Man(a1-6)[Man(a1-2)Man(a1-3)]Man(b1-4)GlcNAc(b1-4)GlcNAc
# Procedure, shortened: as §1
# [24] = molecular target: Man(a1-3)[Man(a1-6)]Man(a1-6)[Man(a1-3)]Man
# Procedure, shortened: as §1
# [25] = molecular target: Man(a1-3)[Man(a1-6)]Man(a1-6)[Man(a1-3)]Man(b1-4)GlcNAc(b1-4)GlcNAc
# Procedure, shortened: as §1
# [26] = molecular target: Man(a1-3)[Man(a1-6)]Man(b1-4)GlcNAc(b1-4)GlcNAc
# Procedure, shortened: as §1
# [27] = molecular target: Man(a1-3)[Man(a1-6)]Man(b1-4)GlcNAc(b1-4)[Fuc(a1-6)]GlcNAc
# Procedure, shortened: as §1
# [28] = molecular target: Man(a1-6)Man
# Procedure, shortened: as §1
# [29] = molecular target: Man(b1-4)GlcNAc
# Procedure, shortened: as §1
# [30] = molecular target: MurNAc(b1-4)GlcNAc
# Procedure, shortened: as §1
# [31] = molecular target: Neu5Ac(a2-3)Gal
# Procedure, shortened: as §1
# [32] = molecular target: Neu5Ac(a2-3)Gal(b1-3)GalNAc
# Procedure, shortened: as §1
# [33] = molecular target: Neu5Ac(a2-3)Gal(b1-3)GalNAc(b1-3)Gal(a1-4)Gal(b1-4)Glc
# Procedure, shortened: as §1
# [34] = molecular target: Neu5Ac(a2-3)Gal(b1-3)GalNAc(b1-4)Gal(b1-4)Glc
# Procedure, shortened: as §1
# [35] = molecular target: Neu5Ac(a2-3)Gal(b1-3)GalNAc(b1-4)[Neu5Ac(a2-3)]Gal(b1-4)Glc
# Procedure, shortened: as §1
# [36] = molecular target: Neu5Ac(a2-3)Gal(b1-3)GalNAc(b1-4)[Neu5Ac(a2-8)Neu5Ac(a2-3)]Gal(b1-4)Glc
# Procedure, shortened: as §1
# [37] = molecular target: Neu5Ac(a2-3)Gal(b1-3)GalNAc6S
# Procedure, shortened: as §1
binder,measurement,setting,value
B1,glycan array binding signal (z-score),[1],0.226
same,glycan array binding signal (z-score),[2],-1.09
same,glycan array binding signal (z-score),[3],-0.234
same,glycan array binding signal (z-score),[4],-0.977
same,glycan array binding signal (z-score),[5],-0.002
same,glycan array binding signal (z-score),[6],-0.237
same,glycan array binding signal (z-score),[7],-0.002
same,glycan array binding signal (z-score),[8],0.512
same,glycan array binding signal (z-score),[9],-1.09
same,glycan array binding signal (z-score),[10],-0.006
same,glycan array binding signal (z-score),[11],-0.935
same,glycan array binding signal (z-score),[12],-0.235
same,glycan array binding signal (z-score),[13],-0.322
same,glycan array binding signal (z-score),[14],-0.239
same,glycan array binding signal (z-score),[15],-1.07
same,glycan array binding signal (z-score),[16],-0.276
same,glycan array binding signal (z-score),[17],0.07
same,glycan array binding signal (z-score),[18],-0.406
same,glycan array binding signal (z-score),[19],-1.08
same,glycan array binding signal (z-score),[20],-0.809
same,glycan array binding signal (z-score),[21],0.303
same,glycan array binding signal (z-score),[22],0.937
same,glycan array binding signal (z-score),[23],-0.282
same,glycan array binding signal (z-score),[24],0.03
same,glycan array binding signal (z-score),[25],0.539
same,glycan array binding signal (z-score),[26],-0.516
same,glycan array binding signal (z-score),[27],0.157
same,glycan array binding signal (z-score),[28],-0.739
same,glycan array binding signal (z-score),[29],1.28
same,glycan array binding signal (z-score),[30],-0.491
same,glycan array binding signal (z-score),[31],0.735
same,glycan array binding signal (z-score),[32],0.105
same,glycan array binding signal (z-score),[33],0.88
same,glycan array binding signal (z-score),[34],0.063
same,glycan array binding signal (z-score),[35],-0.265
same,glycan array binding signal (z-score),[36],-1.72
same,glycan array binding signal (z-score),[37],-0.591

# Shown bar-delimited: entries from further up
binder | measurement | setting | value
B1 | glycan array binding signal (z-score) | [14] | -0.239
same | glycan array binding signal (z-score) | [15] | -1.07
same | glycan array binding signal (z-score) | [16] | -0.276
